Measurements published in publication PMC7064442.
No constants are given. Whether binding was seen depends on the method and setting. Binding seen in cells or lysates may run through a third protein. Some entries that bind do so weakly or less than the wild type. Where a sequence is shown, tags or fusion partners need not be part of it.

T1: N-terminal FLAG-tagged DNMT3L (DNA methyltransferase 3-like) (mouse), Q9CWR8
T1 chain: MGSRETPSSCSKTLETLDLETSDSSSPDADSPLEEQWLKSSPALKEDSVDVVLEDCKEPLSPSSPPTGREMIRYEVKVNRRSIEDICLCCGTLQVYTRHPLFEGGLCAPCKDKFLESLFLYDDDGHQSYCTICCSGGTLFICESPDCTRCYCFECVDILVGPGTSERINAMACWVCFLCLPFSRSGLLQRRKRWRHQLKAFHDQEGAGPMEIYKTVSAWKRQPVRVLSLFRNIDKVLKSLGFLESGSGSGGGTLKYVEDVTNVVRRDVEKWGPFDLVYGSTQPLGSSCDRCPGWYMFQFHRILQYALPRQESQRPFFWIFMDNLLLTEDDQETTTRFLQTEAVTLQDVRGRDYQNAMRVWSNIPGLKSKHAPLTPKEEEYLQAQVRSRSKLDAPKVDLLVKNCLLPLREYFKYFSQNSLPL

B1: SUZ12 (PRC2 member), Q80U70 1-741 (protein)
chain: MAPQKHGGGGGGGSGPSAGSGGGGFGGSAAAVAAAASGGKSGGGGCGGGGSYSASSSSAAAAAAAAGAAVLPVKKPKMEHVQADHELFLQAFEKPTQIYRFLRTRNLIAPIFLHRTLTYMSHRNSRTSIKRKTFKVDDMLSKVEKMKGEQESHSLSAHLQLTFTGFFHKNDKPSQNSENEQNSVTLEVLLVKVCHKKRKDVSCPIRQVPTGKKQVPLNPDLNQTKPGNFPSLAVSSNEFEPSNSHMVKSYSLLFRVTRPGRREFNGMINGETNENIDVSEELPARRKRNREDGEKTFVAQMTVFDKNRRLQLLDGEYEVAMQEMEECPISKKRATWETILDGKRLPPFETFSQGPTLQFTLRWTGETNDKSTAPVAKPLATRNSESLHQENKPGSVKPAQTIAVKETLTTELQTRKEKDNSNESRQKLRIFYQFLYNNNTRQQTEARDDLHCPWCTLNCRKLYSLLKHLKLCHSRFIFNYVYHPKGARIDVSINECYDGSYAGNPQDIHRQPGFAFSRNGPVKRTPITHILVCRPKRTKASMSEFLESEDGEVEQQRTYSSGHNRLYFHSDTCLPLRPQEMEVDSEDEKDPEWLREKTITQIEEFSDVNEGEKEVMKLWNLHVMKHGFIADNQMNHACMLFVENYGQKIIKKNLCRNFMLHLVSMHDFNLISIMSIDKAVTKLREMQQKLEKGESATPSNEEIAEEQNGTANGFSETNSKEKALETDGVSGVPKQSKKQKL
B2: N-terminal FLAG-tagged DNMT3L (DNA methyltransferase 3-like), Q9CWR8 1-421 (protein)
chain: T1 chain

Tests used:
[1] = target: T1, N-terminal FLAG-tagged DNMT3L (DNA …); assay: co-IP; IP with anti-FLAG (M2) on Dynabeads from whole-cell extracts (NP40 buffer, 50 ug total protein) of DNMT3L- or RFP-expressing MEFs 48 h after doxycycline induction; Western blot for DNMT3L, SUZ12, EZH2; details: remark: other sources report otherwise
[2] = target: SUZ12 (PRC2 member) (mouse (endogenous in MEFs)), Q80U70; assay: co-IP; IP with anti-SUZ12 (D39F6) on Dynabeads from whole-cell extracts (NP40 buffer, 50 ug total protein) of DNMT3L- or RFP-expressing MEFs 48 h after doxycycline induction; Western blot for DNMT3L, SUZ12, EZH2; details: remark: other sources report otherwise

Binder | binding [1] | binding [2]
B1 | binds | 
B2 |  | binds
